{
  "source": "PubChem BioAssay AID624291",
  "about": "(National Center for Advancing Translational Sciences (NCATS), 2012)",
  "note": "Screen size: about 350,000 compounds; about 220 (0.063%) were called active. Inconclusive results, whose numbers are uncertain, are shown with a selection of clear calls. Calls come from the whole dose curve; as a rule, active = well fitted activation curve with a large enough effect; inconclusive = small, poorly fitted or top-dose-only effect; inactive = no such curve, though single readings can be large or run the other way. Where the call is inconclusive, the potency comes from a doubtful curve fit. Potency is the fitted concentration of half-maximal effect.",
  "data": [
    {"assay": "qHTS for Activators of Integrin-Mediated Alleviation for Muscular Dystrophy; note: nearly all actives have a fitted effect of over 60% in size;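 for activation: 100% = response of the positive control SU9516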", "settings": "alpha7betagal myoblasts, beta-gal FDG fluorescence, 48 h; activation: at 38.3 µM (top of the series)", "method_in_brief": "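Alpha7betagal+/- myoblasts (passage 13) were plated 16-24 hr, then exposed to compounds (1:260 dilution of DMSO stock) for 48 hours at 37C. After MPER lysis, β-galactosidase reporter activity was read as FDG fluorescence (ex 480/em 540) after 30 minutes.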", "values": [
      {"smiles": "COc1ccc(CNC(=O)Cc2c[nH]c3ccccc23)cc1OC", "Potency": "inconclusive: 5.01 µM [activator, single point]"},
      {"smiles": "COc1cc(CNC(=O)CCn2nc(C)c3c(C)n(-c4ccccc4)nc3c2=O)cc(OC)c1OC", "Potency": "inconclusive: 1.26 µM [activator, partial curve, poor fit]"},
      {"smiles": "CCOc1ccc(CCNC(=O)C2CCCN(S(C)(=O)=O)C2)cc1OCC", "note": "(centres undefined)", "Potency": "inconclusive: 11.2 µM [activator, partial curve]"},
      {"smiles": "O=C(CCNC(=O)c1ccc([N+](=O)[O-])cc1)Nc1cccc(S(=O)(=O)N2CCOCC2)c1", "Potency": "inconclusive: 0.447 µM [activator, full curve, poor fit]"},
      {"smiles": "C#CCOCCOCCOCCNc1nc(N2CCN(C(=O)[C@H](CCCCN)n3cc([C@@H](N)C(C)CC)nn3)CC2)nc(N2CCN(C(=O)[C@H](CCCCN)n3cc([C@@H](N)CC(C)C)nn3)CC2)n1", "note": "(some centres undefined)", "activation": "inactive: -21%"},
      {"smiles": "Cc1cc(C)n(CC(=O)NC2C(=O)N3C(C(=O)O)=C(CSc4nnc(C)s4)CSC23)n1", "note": "(centres undefined)", "Potency": "inconclusive: 5.01 µM [activator, single point]"},
      {"smiles": "COc1ccc(Oc2coc3cc(O)ccc3c2=O)cc1", "activation": "inactive: -16.9%"},
      {"smiles": "CN(CC(=O)Nc1sccc1C#N)S(=O)(=O)c1ccc(F)cc1", "Potency": "inconclusive: 10 µM [activator, partial curve, poor fit]"},
      {"smiles": "O=C(COc1ccc(Cl)cc1Cl)NNC(=S)NCc1ccco1", "activation": "inactive: -8.89%"},
      {"smiles": "CC(C)Cc1nnc(NC(=O)CN2C(=O)NC3(CCCCC3)C2=O)s1", "Potency": "inconclusive: 14.1 µM [activator, single point]"},
      {"smiles": "O=S(=O)(Nc1cccc(-n2cnnn2)c1)c1ccccc1F", "activation": "inactive: 10.6%"},
      {"smiles": "Cc1cc(C)n2nc(C(=O)Nc3ccn(Cc4ccccc4C)n3)cc2n1", "Potency": "inconclusive: 28.2 µM [activator, single point]"},
      {"smiles": "Cn1c(Cc2ccccc2)nnc1SCc1nc2ccccc2c(=O)[nH]1", "Potency": "inconclusive: 5.01 µM [activator, single point]"},
      {"smiles": "CCOC(=O)N1CCN(C(=O)Nc2ccc3nc(C)c(C)nc3c2)CC1", "activation": "inactive: 14.7%"},
      {"smiles": "NC(=O)c1ccc(NC(=O)CCC(=O)c2cccs2)cc1", "Potency": "inconclusive: 8.91 µM [activator, partial curve, poor fit]"},
      {"smiles": "CCOC(=O)NC(=O)/C(C#N)=C\\NNc1ncc(C(F)(F)F)cc1Cl", "Potency": "inconclusive: 5.01 µM [activator, single point]"},
      {"smiles": "CCN(CC(=O)NCc1cccs1)C(=O)c1cccc(S(=O)(=O)Nc2ccc(OC)cc2)c1", "activation": "inactive: 0.505%"},
      {"smiles": "COC(=O)c1ccc(C(=O)OC)c(NC(=S)N2CCN(c3cc(Cl)ccc3C)CC2)c1", "Potency": "inconclusive: 7.08 µM [activator, single point]"},
      {"smiles": "COCCn1c(=N)c(S(=O)(=O)c2ccc(Br)cc2)cc2c(=O)n3ccccc3nc21", "Potency": "active: 4.47 µM"},
      {"smiles": "CN(C(=O)CSC(=O)c1ccccc1)c1ccccc1", "Potency": "inconclusive: 3.16 µM [activator, single point]"},
      {"smiles": "COc1ccc(CCNC(=O)COC(=O)c2ccc(N3CCCC3=O)cc2)cc1OC", "Potency": "inconclusive: 3.16 µM [activator, partial curve, poor fit]"},
      {"smiles": "Cc1[nH]c(-c2ccc(F)cc2)cc1C(=O)N1CCN(c2ccccc2)CC1", "Potency": "inconclusive: 5.01 µM [activator, single point]"},
      {"smiles": "COc1ccc(-c2c(-c3ccc4c(c3)OCO4)noc2C)cn1", "Potency": "inconclusive: 2.82 µM [activator, partial curve, poor fit]"},
      {"smiles": "CC1=C(C#N)C(c2ccccc2O)C(C#N)=C(C)N1", "Potency": "inconclusive: 5.01 µM [activator, single point]"},
      {"smiles": "O=C(CCCn1c(=O)c2cccn2c2cccnc21)NCCc1ccc(Cl)cc1", "Potency": "inconclusive: 5.01 µM [activator, single point]"},
      {"smiles": "COc1ccccc1N1C(=O)CC(Nc2ccc(N3CCOCC3)cc2)C1=O", "note": "(centres undefined)", "activation": "inactive: -23%"},
      {"smiles": "CCOc1cc(S(=O)(=O)n2ccnc2)ccc1Cl", "Potency": "inconclusive: 5.01 µM [activator, single point]"},
      {"smiles": "CCOC(=O)COc1ccc(S(=O)(=O)N2CCc3ccccc3C2)cc1", "activation": "inconclusive: 13.2% [activator]"},
      {"smiles": "C/C(=N/NS(=O)(=O)c1ccc(Cl)cc1)c1ccncc1", "activation": "inactive: 0%"},
      {"smiles": "Cc1ccc(-c2csc(C3=C(O)CN(NC(=O)c4ccc([N+](=O)[O-])cc4)C3=N)n2)cc1", "Potency": "inconclusive: 3.55 µM [activator, full curve, poor fit]"},
      {"smiles": "COc1ccc(-c2n[nH]c(=S)n2Cc2ccccc2)cc1", "activation": "inactive: 0%"},
      {"smiles": "CCOC(=O)c1cn(CC(=O)Nc2ccc(C(C)C)cc2)nn1", "Potency": "inconclusive: 12.6 µM [activator, partial curve, poor fit]"},
      {"smiles": "COCCn1c(=S)[nH]c2cc(C(=O)N3CCN(C4CCCCC4)CC3)ccc2c1=O", "activation": "inactive: -12.3%"},
      {"smiles": "COC(=O)c1ccc(NC(=O)C2CC(=O)OC2c2ccccc2)cc1", "note": "(centres undefined)", "Potency": "inconclusive: 35.5 µM [activator, partial curve, poor fit]"},
      {"smiles": "Cc1cc(C)c(C)c(S(=O)(=O)NC(C)C(=O)O)c1C", "note": "(centres undefined)", "Potency": "inconclusive: 28.2 µM [activator, single point]"},
      {"smiles": "O=C(Nc1cccc(C(F)(F)F)c1)Oc1ccc(Cl)c2cccnc12", "activation": "inactive: -73%"},
      {"smiles": "C=CCNC(=S)NNC(=O)COc1ccc2cc(Br)ccc2c1", "Potency": "inconclusive: 20 µM [activator, single point]"},
      {"smiles": "CCc1ccc(S(=O)(=O)c2nnn3c2nc(N2CCOCC2)c2ccccc23)cc1", "Potency": "inconclusive: 1.78 µM [activator, partial curve, poor fit]"},
      {"smiles": "CN(Cc1cc(Cl)cc(Cl)c1O)Cc1c(O)ccc2ccccc12", "activation": "inactive: -46.4%"},
      {"smiles": "CCOc1cc(NC(=S)NCC2CCCO2)c(OCC)cc1NC(=O)CC", "note": "(centres undefined)", "Potency": "inconclusive: 3.98 µM [activator, single point]"},
      {"smiles": "O=C(Cn1c(=S)[nH]c2ccccc2c1=O)N1CCc2ccccc2C1", "Potency": "inconclusive: 2.24 µM [activator, full curve, poor fit]"},
      {"smiles": "COc1ccc(C2C(C(=O)NCC3CCCO3)CCC(=O)N2c2ccc3c(c2)OCO3)cc1", "note": "(centres undefined)", "activation": "inactive: 9.59%"},
      {"smiles": "COc1ccc(-c2cc3cc(C(=O)O)ccn3c2C(=O)c2ccccc2)cc1", "Potency": "inconclusive: 0.501 µM [activator, full curve, poor fit]"},
      {"smiles": "Cc1ccc(C)c(S(=O)(=O)N2CCCOC2CNC(=O)C(=O)NCc2cccnc2)c1", "note": "(centres undefined)", "activation": "inactive: 2.84%"},
      {"smiles": "FC(F)(F)c1nc2ccccc2n2c(-c3ccc(Cl)cc3Cl)nnc12", "activation": "inactive: -16.9%"},
      {"smiles": "CCOc1nc(-c2ccc(OC)cc2)ccc1-c1noc(C)n1", "activation": "inactive: 1.58%"},
      {"smiles": "COc1ccc(N(CC(=O)Nc2ccc(S(=O)(=O)N3CCCC3)cc2)S(C)(=O)=O)cc1OC", "Potency": "inconclusive: 2.82 µM [activator, single point]"},
      {"smiles": "COc1ccccc1N(Cc1ccccc1)S(=O)(=O)c1cccc(C(=O)NCC2CCCO2)c1", "note": "(centres undefined)", "Potency": "inconclusive: 3.98 µM [activator, partial curve, poor fit]"},
      {"smiles": "C/C(=N\\NC(=O)CNC(=O)c1cccs1)c1ccc(Cl)c(Cl)c1", "activation": "inactive: 27.8%"},
      {"smiles": "CN(Cc1ccccc1)C(=O)COc1ccc2ccccc2c1", "Potency": "inconclusive: 0.708 µM [activator, full curve, poor fit]"},
      {"smiles": "CC(=O)NC1=NN(C(C)=O)C(C)(CS(=O)(=O)c2ccc3ccccc3c2)S1", "note": "(centres undefined)", "Potency": "inconclusive: 11.2 µM [activator, partial curve, poor fit]"},
      {"smiles": "Clc1ccc(COn2nnc3ccccc32)c(Cl)c1", "Potency": "inconclusive: 1.58 µM [activator, partial curve, poor fit]"},
      {"smiles": "CCN(CC)c1ccc(/C=N/Nc2nc(C)cc(C)n2)cc1", "activation": "inactive: -37.1%"},
      {"smiles": "Cc1cc(Cl)ccc1OCC(=O)Nc1cccnc1", "Potency": "inconclusive: 2.82 µM [activator, partial curve, poor fit]"},
      {"smiles": "Cc1cc(C(=O)COC(=O)c2ccc(Cl)c(S(N)(=O)=O)c2)c(C)n1CC1CCCO1", "note": "(centres undefined)", "Potency": "inconclusive: 8.91 µM [activator, partial curve, poor fit]"},
      {"smiles": "O=C(Nc1nnc(SCC(=O)N2CCCc3ccccc32)s1)c1ccc2ccccc2c1", "activation": "inactive: 5.97%"},
      {"smiles": "COc1cc(C(=O)Nc2ccc(O)cc2C(=O)O)ccc1OC(C)=O", "activation": "inactive: -10%"},
      {"smiles": "Cc1nnc(NC(=O)c2sc3ccccc3c2Cl)s1", "activation": "inactive: 36.1%"},
      {"smiles": "CC(NC(=O)c1cc(COc2ccc3ncccc3c2)on1)c1ccc(F)cc1", "note": "(centres undefined)", "activation": "inactive: -50.6%"},
      {"smiles": "CCN(CC)CCC(C)OC(c1ccccc1)c1ccccc1", "note": "(centres undefined)", "activation": "inactive: -59.3%"},
      {"smiles": "COc1ccccc1NC(=O)C(=O)N(c1cccnc1)C(C(=O)NC(C)(C)C)c1ccccc1", "note": "(centres undefined)", "Potency": "inconclusive: 3.55 µM [activator, single point]"},
      {"smiles": "COc1ccc(/C=N/NC(=O)c2cc(C)oc2C)cc1OCc1ccccc1", "activation": "inactive: -14.1%"},
      {"smiles": "O=C(c1ccco1)N1CCN(Cc2nnnn2C2CCCCC2)CC1", "Potency": "inconclusive: 11.2 µM [activator, single point]"},
      {"smiles": "CC(C)CN(C(=O)C1=NN(c2ccccc2)C(=O)CC1)c1c(N)n(Cc2ccccc2)c(=O)[nH]c1=O", "Potency": "inconclusive: 12.6 µM [activator, single point]"},
      {"smiles": "COc1ccc(NC(=O)c2cc3n(n2)C(C(F)(F)F)CC(c2ccco2)N3)cc1", "note": "(centres undefined)", "activation": "inconclusive: -49.3% [activator]"},
      {"smiles": "Cc1ccc(OCc2nnc(-c3ccc(Cl)cc3)o2)cc1", "Potency": "inconclusive: 5.01 µM [activator, single point]"},
      {"smiles": "Fc1ccccc1/C=N/n1c(C2CCCCC2)n[nH]c1=S", "activation": "inactive: 0%"},
      {"smiles": "COc1ccc(CN2CCN(C(=O)c3cccc4ccccc34)CC2)c(OC)c1OC", "Potency": "inconclusive: 7.08 µM [activator, partial curve, poor fit]"},
      {"smiles": "COc1ccc(S(=O)(=O)Nc2ccc(S(=O)(=O)N3CCOCC3)cc2)cc1", "Potency": "inconclusive: 11.2 µM [activator, partial curve]"}
    ]}
  ]
}
